Sequences and labels used below:
B1: δ-COP (ARCN1), endogenous in LNCaP cells (protein, UniProt P48444 1-511)
chain: MVLLAAAVCTKAGKAIVSRQFVEMTRTRIEGLLAAFPKLMNTGKQHTFVETESVRYVYQPMEKLYMVLITTKNSNILEDLETLRLFSRVIPEYCRALEENEISEHCFDLIFAFDEIVALGYRENVNLAQIRTFTEMDSHEEKVFRAVRETQEREAKAEMRRKAKELQQARRDAERQGKKAPGFGGFGSSAVSGGSTAAMITETIIETDKPKVAPAPARPSGPSKALKLGAKGKEVDNFVDKLKSEGETIMSSSMGKRTSEATKMHAPPINMESVHMKIEEKITLTCGRDGGLQNMELHGMIMLRISDDKYGRIRLHVENEDKKGVQLQTHPNVDKKLFTAESLIGLKNPEKSFPVNSDVGVLKWRLQTTEESFIPLTINCWPSESGNGCDVNIEYELQEDNLELNDVVITIPLPSGVGAPVIGEIDGEYRHDSRRNTLEWCLPVIDAKNKSGSLEFSIAGQPNDFFPVQVSFVSKKNYCNIQVTKVTQVDGNSPVRFSTETTFLVDKYEIL

Protein sequences, listed by entry. Tags and fused reporters are not part of them.
UniProt P53618: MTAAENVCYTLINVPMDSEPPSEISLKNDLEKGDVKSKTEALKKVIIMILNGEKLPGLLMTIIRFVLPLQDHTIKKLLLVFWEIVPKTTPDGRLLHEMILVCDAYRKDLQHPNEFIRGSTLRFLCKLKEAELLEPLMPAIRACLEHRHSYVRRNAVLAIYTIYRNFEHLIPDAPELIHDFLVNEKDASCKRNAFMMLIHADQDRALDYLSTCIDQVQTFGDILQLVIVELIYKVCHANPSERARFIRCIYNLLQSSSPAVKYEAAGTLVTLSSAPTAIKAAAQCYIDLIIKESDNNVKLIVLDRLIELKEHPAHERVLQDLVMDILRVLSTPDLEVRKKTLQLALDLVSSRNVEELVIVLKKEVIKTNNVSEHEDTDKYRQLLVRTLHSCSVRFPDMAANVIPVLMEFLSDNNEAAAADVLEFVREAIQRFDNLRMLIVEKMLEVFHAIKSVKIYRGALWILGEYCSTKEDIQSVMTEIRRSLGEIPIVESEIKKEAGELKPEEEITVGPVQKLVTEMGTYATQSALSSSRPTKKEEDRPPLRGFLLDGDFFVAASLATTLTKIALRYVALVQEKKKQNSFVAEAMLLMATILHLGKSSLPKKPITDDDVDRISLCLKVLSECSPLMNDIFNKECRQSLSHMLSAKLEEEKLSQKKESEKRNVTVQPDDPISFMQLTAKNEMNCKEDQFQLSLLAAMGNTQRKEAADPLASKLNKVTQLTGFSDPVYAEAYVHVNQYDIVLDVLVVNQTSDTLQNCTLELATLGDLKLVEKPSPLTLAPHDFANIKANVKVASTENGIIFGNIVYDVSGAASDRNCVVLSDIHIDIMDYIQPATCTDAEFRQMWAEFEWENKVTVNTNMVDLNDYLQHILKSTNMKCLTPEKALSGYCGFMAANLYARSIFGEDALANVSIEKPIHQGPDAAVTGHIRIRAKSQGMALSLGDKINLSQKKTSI
UniProt P61923: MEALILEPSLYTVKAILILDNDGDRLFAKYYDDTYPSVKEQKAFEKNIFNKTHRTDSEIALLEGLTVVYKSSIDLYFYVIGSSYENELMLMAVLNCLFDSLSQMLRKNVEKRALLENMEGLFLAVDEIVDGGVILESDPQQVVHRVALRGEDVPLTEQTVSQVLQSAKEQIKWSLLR

These are yes or no findings as the source states them, for the method shown. In cells and extracts the contact can be indirect. A yes stands for co-enrichment or nearness to the bait. Other partners may have been found.

The test deals with T1, Gemin4 CaMKK2 Binding Motif peptide, biotinylated.
T1 sequence (peptide, biotin): SLTSFSQNA
Put plainly: affinity purification with mass spectrometry; biotinylated Gemin4 CBM peptide or control peptide as bait with lysate of vehicle- and androgen-treated LNCaP cells; TMT6plex labelling, mass spectrometry; only the target purified.
As to “β-COP, endogenous in LNCaP cells (from UniProt P53618 1-953)”, the binding result is given as “binds”.
Turning to “ζ-COP, endogenous in LNCaP cells (from UniProt P61923 1-177)”, the binding entry is listed as “binds”.
For the molecule B1, the binding entry is recorded as “binds”.

Source of the values: paper PMC8560770.
